Where a SMILES comes first, the peptide text is derived from it.
System: not listed separately
Assay: PTSD metabolomics: LC-MS/MS of metabolites, PTSD subjects vs controls, PLSDA
Parameters: species or system human
Conditions: ratio of metabolite amount, 18 PTSD vs 20 control

Compared with `CC(C)CCC[C@@H](C)[C@H]1CC[C@H]2[C@@H]3C(=O)C=C4C[C@@H](O)CC[C@]4(C)[C@H]3CC[C@]12C` [7-ketocholesterol], `C[C@H](CCC(=O)NCC(=O)O)[C@H]1CC[C@H]2[C@@H]3[C@H](O)C[C@@H]4C[C@H](O)CC[C@]4(C)[C@H]3C[C@H](O)[C@]12C` [Glycocholic acid] is lower in PTSD/Control: 0.7981 for the first, 0.7173 for the second.

Compared with `NC(=O)c1ncn([C@@H]2O[C@H](COP(=O)(O)O)[C@@H](O)[C@H]2O)c1N` [AICAR], `Nc1nc2c(ncn2[C@@H]2O[C@H](COP(=O)(O)O)[C@@H](O)[C@H]2O)c(=O)[nH]1` [Guanosine monophosphate] is lower in PTSD/Control: 1.15 for the first, 0.9072 for the second.

First: Nc1ncnc2c1ncn2[C@@H]1O[C@H](COP(=O)(O)O)[C@@H](O)[C@H]1O [Adenosine monophosphate]
Second: N[C@@H](Cc1ccc(O)cc1)C(=O)O [L-Tyrosine]
The PTSD/Control of the first is lower: 0.8009 for the first, 0.9049 for the second.

Going from `C[C@H](N)C(=O)O` [Alanine] to `N[C@@H](CO)C(=O)O` [L-Serine], the PTSD/Control rises from 0.9055 to 1.115.

Compared with `CCCCC/C=C\C/C=C\C/C=C\C/C=C\CCCC(=O)O` [Arachidonic Acid], `CCCCC/C=C\C/C=C\CCCCCCCC(=O)O` [Linoleic acid] is higher in PTSD/Control: 1.171 for the first, 1.24 for the second.

First: O=C(O)C=Cc1c[nH]c2ccccc12 [Indoleacrylic acid]
Second: N[C@@H](Cc1c[nH]c2ccccc12)C(=O)O [L-Tryptophan]
The PTSD/Control of the first is higher: 0.9385 for the first, 0.9265 for the second.

Going from `CN[C@@H](CS)C(=O)O` [Methylcysteine] to `CNCC(=O)O` [Sarcosine], the PTSD/Control rises from 0.9101 to 0.9121.

Compared with `CC(=O)N[C@@H](CC(=O)O)C(=O)O` [N-Acetyl-L-aspartic acid], `CC(=O)N[C@@H](CC(=O)O)C(=O)N[C@@H](CCC(=O)O)C(=O)O` [N-Acetylaspartylglutamic acid] (Ac-Asp-Glu-OH) is lower in PTSD/Control: 1.314 for the first, 1.166 for the second.

First: O=C([NH2+][O-])c1cccnc1 [Nicotinamide N-oxide]
Second: O=c1[nH]c(=O)c2[nH]cnc2[nH]1 [Xanthine]
The PTSD/Control of the first is higher: 1.395 for the first, 0.8533 for the second.

Going from `CCCCCCCC/C=C\CCCCCCCC(=O)O` [Oleic acid] to `CCCCCCCCCCCCC/C=C/[C@@H](O)[C@H](COP(=O)([O-])OCC[N+](C)(C)C)NC(=O)CCCCCCCCCCC` [SM(d18:1/12:0)], the PTSD/Control falls from 1.297 to 0.8917.

With `CC1=C(/C=C/C(C)=C/C=C/C(C)=C/CO)C(C)(C)CCC1` [Retinol] the PTSD/Control was 0.8755.

System: Fragile X (Fmr1) knockout mouse
Assay: Plasma metabolomics after weekly suramin or saline, Fragile X model
Format: in vivo
Conditions: KO-Suramin vs KO-Saline, Fmr1 knockout mice, PLSDA
Procedure: Samples were analyzed on an AB SCIEX QTRAP 5500 triple quadrupole mass spectrometer equipped with a Turbo V electrospray ionization (ESI) source, Shimadzu LC-20A UHPLC system, and a PAL CTC autosampler (AB ACIEX, Framingham, Mass., USA). […] Plasma was separated by centrifugation at 600 g×5 minutes at 20° C. within one hour of collection. Fresh lithium-heparin plasma was transferred to labeled tubes for storage at −80° C. for analysis. Typically 45 μl of plasma was thawed on ice and transferred to a 1.7 ml Eppendorf tube. Two and one-half (2.5) μl of a cocktail containing 35 commercial stable isotope internal standards, and 2.5 μl of 310 stable isotope internal standards that were custom-synthesized in E. coli and S. cerevisiae by metabolic labeling with ^13C-glucose and ^13C-bicarbonate, were added, mixed, and incubated for 10 min at room temperature to permit small molecules and vitamins in the internal standards to associate with plasma binding proteins. Macromolecules (protein, DNA, RNA, etc.) were precipitated by extraction with 4 volumes (200 μl) of cold (−20° C.), acetonitrile:methanol (50:50) (LCMS grade, Cat#LC015-2.5 and GC230-4, Burdick & Jackson, Honeywell), vortexed vigorously, and incubated on crushed ice for 10 min, then removed by centrifugation at 16,000 g×10 min at 4° C. The supernatants containing the extracted metabolites and internal standards in the resulting 40:40:20 solvent mix of acetonitrile:methanol:water were transferred to labeled cryotubes and stored at −80° C. for LC-MS/MS (liquid chromatography-tandem mass spectrometry) analysis.
LC-MS/MS analysis was performed by multiple reaction monitoring (MRM) under Analyst v1.6.1 (AB SCIEX, Framingham, Mass., USA) software control in both negative and positive mode with rapid polarity switching (50 ms). Nitrogen was used for curtain gas (set to 30), collision gas (set to high), ion source gas 1 and 2 (set to 35). The source temperature was 500° C. Spray voltage was set to −4500 V in negative mode and 5500 V in positive mode. The values for Q1 and Q3 mass-to-charge ratios (m/z), declustering potential (DP), entrance potential (EP), collision energy (CE), and collision cell exit potential (CXP) were determined and optimized for each MRM for each metabolite. Ten microliters of extract was injected by PAL CTC autosampler into a 250 mm×2 mm, 5 μm Luna NH2 aminopropyl HPLC column (Phenomenex, Torrance, Calif., USA) held at 25° C. for chromatographic separation. […] The flow rate was 300 μl/min. All the samples were kept at 4° C. during analysis. The chromatographic peaks were identified using MultiQuant (v3.0, AB SCIEX), confirmed by manual inspection, and the peak areas integrated. The median of the peak area of stable isotope internal standards was calculated and used for the normalization of metabolites concentration across the samples and batches. Prior to multivariate and univariate analysis, the data were log-transformed.
A rendering of mammalian intermediary metabolism was constructed in Cytoscape v 3.1.1 (see, e.g., [http://]www.cytoscape.org/). […] Nodes in the Cytoscape network represent metabolites within the pathways and have been colored according to the Z-score. The Z-score was computed as the arithmetic difference between the mean concentration of each metabolite in the KO-Sur treatment group and the KO-Sal control group, divided by the standard deviation in the controls. Node colors were arranged on a red-green color scale with green representing −2.00 Z-score, red representing +2.00 Z-score, and with a zero (0) Z-score represented as white.
Group means and standard error of the means (SEM) are reported. Behavioral data were analyzed by two-way ANOVA and one-way ANOVAs (GraphPad Prism 5.0d, GraphPad Software Inc., La Jolla, Calif., USA, or Stata/SE v12.1, StataCorp, College Station, Tex., USA). Pair-wise post hoc testing was performed by the method of Tukey or Newman-Keuls. Significance was set at p<0.05.

First: NC(=O)c1ncn([C@@H]2O[C@H](COP(=O)(O)O)[C@@H](O)[C@H]2O)c1N [AICAR]
Second: O=C([NH2+][O-])c1cccnc1 [Nicotinamide N-oxide]
The “VIP Score, metabolites changed by antipurinergic therapy” value of the first is lower: 1.5150 for the first, 1.724 for the second.

For `O=c1[nH]c(=O)c2[nH]cnc2[nH]1` [Xanthine], the “VIP Score, metabolites changed by antipurinergic therapy” value was 8.283.

From US20160209428A1, “DIAGNOSTIC AND PREDICTIVE METABOLITE PATTERNS FOR DISORDERS AFFECTING THE BRAIN AND NERVOUS SYSTEM” (THE REGENTS OF THE UNIVERSITY OF CALIFORNIA, priority 2013, published 2016)
